Amino acid sequences for entries named in this document (tags omitted). A change or cut given only in a name is not applied to a line headed by its entry.
UniProt O95750: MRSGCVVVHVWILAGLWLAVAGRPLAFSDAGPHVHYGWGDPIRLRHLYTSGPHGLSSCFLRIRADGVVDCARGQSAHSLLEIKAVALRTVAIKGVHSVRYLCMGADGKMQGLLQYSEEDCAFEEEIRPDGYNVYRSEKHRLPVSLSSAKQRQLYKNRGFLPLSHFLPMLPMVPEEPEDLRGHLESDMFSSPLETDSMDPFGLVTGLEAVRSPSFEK
UniProt Q9NSA1: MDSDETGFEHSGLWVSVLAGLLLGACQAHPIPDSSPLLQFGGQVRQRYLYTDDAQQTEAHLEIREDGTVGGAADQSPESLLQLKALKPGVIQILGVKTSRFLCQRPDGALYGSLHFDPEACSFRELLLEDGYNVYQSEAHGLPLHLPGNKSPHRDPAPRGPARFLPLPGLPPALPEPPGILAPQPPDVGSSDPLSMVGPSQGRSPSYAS

In patent publication US20130184211A1:

Columns and labels:
[1] = target: human FGF19 (R23 to K216), FGF19^23-216 (human) (UniProt O95750); test: SPR; FGF19^23-216 immobilized, βKlotho ectodomain injected with FGF23^180-251 (2:1)
[2] = target: human FGF21 (H29 to S209), FGF21^29-209 (human) (UniProt Q9NSA1); test: SPR; FGF21^29-209 immobilized, βKlotho ectodomain injected with FGF23^180-251 (2:1)
[3] = target: human FGF21 (H29 to S209), FGF21^29-209 (human) (UniProt Q9NSA1); test: SPR, FGF21^29-209 immobilized, 10 nM βKlotho ectodomain injected
[4] = target: human FGF19 (R23 to K216), FGF19^23-216 (human) (UniProt O95750); test: SPR, FGF19^23-216 immobilized, 10 nM βKlotho ectodomain injected

Measured: binding

B1: ectodomain of murine βKlotho (F53 to L995) with C-terminal FLAG tag (receptor, UniProt Q99N32 53-995, looked up, not shown: small tags and cut ends)
chain: FSGDGKAIWDKKQYVSPVNPSQLFLYDTFPKNFSWGVGTGAFQVEGSWKTDGRGPSIWDRYVYSHLRGVNGTDRSTDSYIFLEKDLLALDFLGVSFYQFSISWPRLFPNGTVAAVNAQGLRYYRALLDSLVLRNIEPIVTLYHWDLPLTLQEEYGGWKNATMIDLFNDYATYCFQTFGDRVKYWITIHNPYLVAWHGFGTGMHAPGEKGNLTAVYTVGHNLIKAHSKVWHNYDKNFRPHQKGWLSITLGSHWIEPNRTDNMEDVINCQHSMSSVLGWFANPIHGDGDYPEFMKTGAMIPEFSEAEKEEVRGTADFFAFSFGPNNFRPSNTVVKMGQNVSLNLRQVLNWIKLEYDDPQILISENGWFTDSYIKTEDTTAIYMMKNFLNQVLQAIKFDEIRVFGYTAWTLLDGFEWQDAYTTRRGLFYVDFNSEQKERKPKSSAHYYKQIIQDNGFPLKESTPDMKGRFPCDFSWGVTESVLKPEFTVSSPQFTDPHLYVWNVTGNRLLYRVEGVRLKTRPSQCTDYVSIKKRVEMLAKMKVTHYQFALDWTSILPTGNLSKVNRQVLRYYRCVVSEGLKLGVFPMVTLYHPTHSHLGLPLPLLSSGGWLNMNTAKAFQDYAELCFRELGDLVKLWITINEPNRLSDMYNRTSNDTYRAAHNLMIAHAQVWHLYDRQYRPVQHGAVSLSLHCDWAEPANPFVDSHWKAAERFLQFEIAWFADPLFKTGDYPSVMKEYIASKNQRGLSSSVLPRFTAKESRLVKGTVDFYALNHFTTRFVIHKQLNTNRSVADRDVQFLQDITRLSSPSRLAVTPWGVRKLLAWIRRNYRDRDIYITANGIDDLALEDDQIRKYYLEKYVQEALKAYLIDKVKIKGYYAFKLTEEKSKPRFGFFTSDFRAKSSVQFYSKLISSSGLPAENRSPACGQPAEDTDCTICSFLVEKKPL
binds: all assays above

Results are given in words; binding and its absence hold for the method and conditions named. A result given as binding can be weak or reduced; the word gives no strength. Tags and fused reporters may be left off the sequences shown.
